Assay results taken from patent publication US11744787B2, “Menthol-containing aroma preparations” (Symrise AG, priority 2016, dated 2023).

Test: Sensory evaluation of the taste profile of aroma mixtures by a panel of 5 trained testers
Format: in vivo
Conditions: 0.5% by weight in unsweetened, unflavored standard chewing sweet preparation; rating (5)=is very true to (0)=is largely untrue; mean values of 5 trained testers
Protocol: The taste profile of various aroma mixtures was assessed by a panel consisting of 5 trained testers. To that end, the mixtures were incorporated in an amount of 0.5% by weight into an unsweetened and unflavored standard chewing sweet preparation. The evaluation was made according to the rating (5)=is very true to (0)=is largely untrue. The mean values are given.

## C=CCc1ccc(O)c(OC)c1 [Example C1, 4-Allyl-2-methoxyphenol]
  Burning taste: 4.5
  Painful sensation: 3.0
  Warm-spicy taste: 4.2
